From PMC10928986, “ARTC1-mediated VAPB ADP-ribosylation regulates calcium homeostasis” (Journal of Molecular Cell Biology, 2023)
These are yes or no findings as the source states them, for the method shown. Binding seen in cells or lysates may run through a third protein. These calls come from enrichment with a bait or labelling near it, and not all partners need be listed. Sequences can lack the tags named with a protein.

By UniProt entry, the sequences of proteins in these tests, tags left out. Residues count along the entry.
UniProt P52961, residues 23-295: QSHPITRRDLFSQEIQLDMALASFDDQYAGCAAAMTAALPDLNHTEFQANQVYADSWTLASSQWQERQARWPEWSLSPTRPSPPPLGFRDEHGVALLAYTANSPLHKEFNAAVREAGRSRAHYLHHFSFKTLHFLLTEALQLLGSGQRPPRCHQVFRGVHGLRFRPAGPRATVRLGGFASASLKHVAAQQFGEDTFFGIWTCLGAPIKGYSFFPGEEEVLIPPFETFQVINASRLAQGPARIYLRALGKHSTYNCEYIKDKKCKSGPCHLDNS

Target: T1, S-Flag-streptavidin binding protein (SFB)-tagged hARTC3 (human) (UniProt Q13508)
T1 sequence: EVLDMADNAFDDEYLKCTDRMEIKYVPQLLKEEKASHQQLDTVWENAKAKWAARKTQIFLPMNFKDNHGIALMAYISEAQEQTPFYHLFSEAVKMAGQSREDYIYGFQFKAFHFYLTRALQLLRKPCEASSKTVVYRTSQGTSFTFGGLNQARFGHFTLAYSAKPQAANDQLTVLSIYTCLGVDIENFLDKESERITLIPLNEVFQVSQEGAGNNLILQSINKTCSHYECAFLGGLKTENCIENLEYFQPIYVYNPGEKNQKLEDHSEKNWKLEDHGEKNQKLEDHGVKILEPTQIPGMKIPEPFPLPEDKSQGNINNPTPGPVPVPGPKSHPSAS
Assay: affinity purification with mass spectrometry; tandem affinity purification (streptavidin agarose, biotin elution, S beads) from HEK-293T cells stably expressing SFB-hARTC1 or SFB-hARTC3; NETN buffers; whole lane analysed by MS

endogenous hARTC1 (from UniProt P52961 23-295) (enzyme)
binding: binds
